Measured values reported in patent US20160280799A1.
Results are given in words; binding and its absence hold for the method and conditions named. Some binding calls cover weakened binding; strength is not graded here.

Protein sequences, listed by entry. Tags and fused reporters are not part of them. Lines headed by an entry give the natural chain unless they say otherwise; changes in a name come on top. Chains listed by the source or under a name are the forms on record and can include a tag or linker.
human IgE (P01854, form named): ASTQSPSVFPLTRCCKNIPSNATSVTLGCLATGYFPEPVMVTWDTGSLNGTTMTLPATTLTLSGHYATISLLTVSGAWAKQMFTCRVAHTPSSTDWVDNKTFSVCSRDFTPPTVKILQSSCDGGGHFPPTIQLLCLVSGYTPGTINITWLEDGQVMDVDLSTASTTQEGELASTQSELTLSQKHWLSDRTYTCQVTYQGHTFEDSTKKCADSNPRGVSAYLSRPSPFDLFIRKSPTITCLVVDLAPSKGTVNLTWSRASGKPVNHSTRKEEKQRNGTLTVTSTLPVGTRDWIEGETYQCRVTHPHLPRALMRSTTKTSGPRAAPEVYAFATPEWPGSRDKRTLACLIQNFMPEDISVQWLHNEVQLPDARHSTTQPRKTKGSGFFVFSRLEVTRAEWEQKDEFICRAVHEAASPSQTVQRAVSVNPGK

Target: human IgE (human) (UniProt P01854)
Test: ELISA, solid phase coated human IgE

B1: VHH#2C3 (VHH)
VHH: QVQLQDSGGGLVQPGGSLRLSCRASGRIFRINAMGWYRQAPGKQRELVATITSTGSTNFADSVKGRFTIYRDGAKRTVDLRLNSLKPEDTAVYFCNADVREYDLGPWRQYWGQGTQVTVSS
binding: binds

B2: VHH#2G4 (VHH)
VHH: QVQLQDSGGGLVQAGDSLRLSCAASGLTFLEHVMAWFRQTPGKEREFVGAIDWSGRRITYTDSVKGRFTISRDNAKNTVYLQMNTLKPEDTAVYYCAADRTYSYSSTGYYYWGQGTQVTVSS
binding: binds

B3: VHH#4C5 (VHH)
VHH: QVQLQESGGGLVQAGGSLRLSCAASGRTLSSYTMAWFRQAPGKEREFVASISSSGISTYYADSVKGRFTISRDIAKNTVYLQMNSLKPEDTAVYYCAAKYRYYSTLYTKSGEYDYWGQGTQVTVSS
binding: binds

B4: VHH#4A2 (VHH)
VHH: QVQLQDSGGGLVQAGGSLRLSCEASGRTISSYAMAWFRQAPGKEREFVASISSSGVSKHYADSVKGRFTISNDKVKNTVYLQMNSLKPEDTAVYFCAAKYRYYSSYYTKSGDYDYWGQGTQVTVSS
binding: binds

B5: VHH#2D4 (VHH)
VHH: QVQLQESGGGLVQAGGSLRLSCAASGLTFSTYAMGWFRQAPGKEREFVAAVSYSGSYYADSVKGRFTISRDNAKNTVYLQMASLKPEDTAVYYCAARNRGYSTYAGVYDYWGQGTQVTVSS
binding: binds

B6: VHH#2B6 (VHH)
VHH: QVQLQDSGGGLVQAGGSLRLSCAASGVTFSSYAMGWFRQAPGKEREFVASITWIGGGTYYADSVKGRFTISRDHAGNTVYLQMNTLKPDDTAVYYCALDRRSSTYYLMKGEYDYRGRGTQVTVSS
binding: binds

B7: VHH#2H11 (VHH)
VHH: QVQLQESGGGLVQAGGSLRLSCAASGVTFSSYAMGWFRQAPGKEREFVASITWTGTGTYYADSVKGRFTISRDHAGTTVYLQMNSLKPEDTAVYYCAVDRRSSTYYLMKGEYDYRGRGTQVTVSS
binding: binds

B8: VHH#4G12 (VHH)
VHH: QVQLQESGGGVVQPGGSLRLSCSVSGTSISNRVMAWFRQAPGKQRDFVAYITSAVNTDYADFVKGRFTISRDNAQNMVHLQMNSLKPEDTAVYYCNVLKDTWFRTPYDYYWGQGTQVTVSS
binding: binds

B9: VHH#2C1 (VHH)
VHH: QVQLQESGGGLVQPGDSLRLSCVVSGRTLSYSSLAWFRQAPGKERDFVAALSLTTYYADSVKGRFTISRDNAKNTVYLQMNSLKPDDTADYFCATARTRTDYAPLLSAASTYDAWGQGTQVTVSL
binding: binds

B10: VHH#2H3 (VHH)
VHH: QVQLQESGGGLVQAGGSLRLSCAASGRSSRYYAMGWFRQGPGKEREFVAAVNWNGDSTYYADSVKGRFTISRGNAENTAYLQMNSLVPEDTAVYYCAMRMNAGLGYSAASYQYWGQGTQVTVSL
binding: binds

B11: VHH#2D12 (VHH)
VHH: QVQLQESGGGLVQAGDSLRLSCAASGLTFLEHVMAWFRQTPGKEREFVGAIDWSGRRITYTDSVKGRFTISRDNAKNTVYLQMNTLKPEDTAVYYCAADRTYSYSSTGYYYWGQGTQVTVSS
binding: binds
